Drawing on PMC2581486, this text covers binding for one molecule.

The assay deals with outer membrane protein F (WT OmpF), trimer purified from the outer membrane with bound LPS (E. coli) (UniProt P02931). The assay can be described thus: electron crystallography of negatively stained 2D crystals; both purified.

Results are given in words; binding and its absence hold for the method and conditions named. Some entries that bind do so weakly or less than the wild type.

B1: outer membrane protein F (WT OmpF), trimer purified from the outer membrane with bound LPS (protein, UniProt P02931 23-362)
chain: AEIYNKDGNKVDLYGKAVGLHYFSKGNGENSYGGNGDMTYARLGFKGETQINSDLTGYGQWEYNFQGNNSEGADAQTGNKTRLAFAGLKYADVGSFDYGRNYGVVYDALGYTDMLPEFGGDTAYSDDFFVGRVGGVATYRNSNFFGLVDGLNFAVQYLGKNERDTARRSNGDGVGGSISYEYEGFGIVGAYGAADRTNLQEAQPLGNGKKAEQWATGLKYDANNIYLAANYGETRNATPITNKFTNTSGFANKTQDVLLVAQYQFDFGLRPSIAYTKSKAKDVEGIGDVDLVNYFEVGATYYFNKNMSTYVDYIINQIDSDNKLGVGSDDTVAVGIVYQF
On to B1, for which the binding result is given as “binds”.
